Series [1] in a line: In vivo SPME sampling of whole blood for pharmacokinetics after i.v. bolus diazepam. To be noted: male, Sprague-Dawley, rat, iv. The method, then: (§1) Animal Experiments: Male Sprague-Dawley rats (Charles River Labs, St. Constant, PQ) with an average weight of 300 g are acclimatized to their new environment for a minimum of 5 days prior to surgery. […] The catheters are plugged with removable metal plugs at the free end and then exteriorized by threading them under the skin and through a small incision at the nape of the neck. Animals are allowed to recover overnight prior to dosing. […] In vivo mouse experiments are conducted with conscious male Swiss Webster mice implanted with a carotid artery catheter. All procedures followed have been reviewed by the NoAb BioDiscoveries Inc. animal care committee and were performed in accordance with the principles of the Canadian Council on Animal Care (CCAC).
A device to extract components is attached to the carotid artery catheter prior to dosing each rat or mouse. To insert the probes, the tip of the SPME probe needle is used to pierce the septum of the device. […]
(§2) Areas under the plasma concentration versus time curves (AUCs) represent the areas under the curve from the time of dosing and extrapolated to infinity. […] Mean residence times (MRT) are calculated as: AUMC/AUC, where AUMC denotes the area under the first moment curve. The steady-state volume of distribution (Vss) is calculated as: CL*MRT.
(§3) AUCs are calculated by the linear/log-linear trapezoidal rule. […]

Series [2] can be described thus: Conventional plasma sampling and analysis for pharmacokinetics after i.v. bolus diazepam. To be noted: male, Sprague-Dawley, rat, iv. The method, then:
as §1
For each time point (5, 15, 30, 45, 60, 75, 120, 180, 240 and 360 min), the probes are in place for about two (2) minutes before the stated analysis time and blood draws are performed immediately after removing the probes. […]
as §2, §3

On to `CN1C(=O)CN=C(c2ccccc2)c2cc(Cl)ccc21` [diazepam], for which the AUC in series [1] (0.5 mg/kg) came to 172 ng·h/mL; in series [1] (1 mg/kg), 236 ng·h/mL; in series [2] (0.5 mg/kg), 157 ng·h/mL; in series [2] (1 mg/kg) it was 303 ng·h/mL.

(Values after patent publication US8104331B2, “Method and device to extract components contained in a fluid” (Noab Biodiscoveries Inc., priority 2006, dated 2012).)
